According to the supplement of paper PMC8551327:
Counter-ions that a name gives are not always drawn. This is one part of the list. Rule as the data show it: active = 1.25 or more and inactive = the rest. Many values rest on one well or one pass, so single values are uncertain.

Test system: Kcc2-LUC knock-in mouse primary cortical neurons (Kcc2 promoter reporter)
Test: Kcc2 promoter-driven luciferase activity relative to vehicle control (fold of vehicle (ratio)); higher = stronger Kcc2 promoter activation (Kcc2 expression enhancer)
Conditions: 100 nM; 48 h

Structure (SMILES) | Kcc2 promoter-driven luciferase activity
Cc1ccc(NC(=O)c2cccc([N+](=O)[O-])c2O)c([N+](=O)[O-])c1 [2-Hydroxy-N-(4-methyl-2-nitrophenyl)-3-nitrobenzamide] | inactive: 1.2
CC[C@]12CN3CCc4c([nH]c5ccccc45)[C@@](C(=O)OC)(c4cc5c(cc4OC)N(C)[C@H]4[C@@](O)(C(=O)OC)[C@H](OC(C)=O)[C@]6(CC)C=CCN7CC[C@]54[C@@H]76)C[C@@H](C3)[C@H]1O2 [Vinleurosine sulfate] | inactive: 0.01
O=C(NC(=O)c1c(Cl)nc2sccn12)Nc1ccc(Cl)cc1 | inactive: 1.05
CO[C@H](C(=O)[C@@H](O)[C@@H](C)O)[C@@H]1Cc2cc3cc(O[C@H]4C[C@@H](O[C@H]5C[C@@H](O)[C@H](O)[C@@H](C)O5)[C@H](O)[C@@H](C)O4)c(C)c(O)c3c(O)c2C(=O)[C@H]1O[C@H]1C[C@@H](O[C@H]2C[C@@H](O[C@H]3C[C@](C)(O)[C@H](O)[C@@H](C)O3)[C@@H](O)[C@@H](C)O2)[C@H](O)[C@@H](C)O1 [Plicamycin] | inactive: 1.18
N#CC1(C#N)C2C=CC(c3coc4cccc2c34)C1(C#N)C#N (stereo not drawn) | inactive: 0.78
COc1c(O)cc2oc3cc(O)c(CC=C(C)C)c(O)c3c(=O)c2c1CC=C(C)C [Mangostin] | inactive: 0.963
CC1=C(C(=O)NCc2ccccc2)C(c2ccccc2O)C(C(=O)NCc2ccccc2)=C(C)N1 | active: 1.4
COc1cc2oc3cc(=O)cc4oc(-c5ccccc5)cc(c2c2c1CC[C@@H](c1ccccc1)O2)c43 [Nordracorubin] | inactive: 1.23
